These are yes or no findings as the source states them, for the method shown. Some binding calls cover weakened binding; strength is not graded here. Sequences can lack the tags named with a protein.
Target: soluble extracellular fragment of TNFR1 (sTNFR1) (human) (UniProt P19438)
Test: pull-down; affinity column: sTNFR1 coupled to CNBr-Sepharose; biotinylated aAb loaded, column washed with PBS, then Tag7 in PBS added in 100-fold excess over aAb; TNFR1-bound fraction blotted with anti-Tag7 antibodies; both purified

Protein sequences, listed by entry. Tags and fused reporters are not part of them. Residues count along the entry.
UniProt P19438, residues 42-201: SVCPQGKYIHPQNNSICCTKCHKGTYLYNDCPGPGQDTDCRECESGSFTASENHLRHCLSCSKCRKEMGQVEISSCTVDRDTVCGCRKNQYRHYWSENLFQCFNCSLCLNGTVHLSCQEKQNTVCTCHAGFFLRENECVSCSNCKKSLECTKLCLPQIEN

B1: Tag7 (PGLYRP1) (protein, UniProt O75594 22-196)
chain: QETEDPACCSPIVPRNEWKALASECAQHLSLPLRYVVVSHTAGSSCNTPASCQQQARNVQHYHMKTLGWCDVGYNFLIGEDGLVYEGRGWNFTGAHSGHLWNPMSIGISFMGNYMDRVPTPQAIRAAQGLLACGVAQGALRSNYVLKGHRDVQRTLSPGNQLYHLIQNWPHYRSP
binding: binds

Source: publication PMC7340778
